Measurements taken from patent US9074016B2, “G protein-related kinase mutants in essential hypertension” (priority 1998, dated 2015).
At least one structure is not confirmed: it was looked up by name or label, or the drawing left a doubt.

Tested on: D1 receptor
Assay: cAMP production in CHO cells transfected with D1 receptor and GRK4γ
Assay type: cell-based
Details: data not shown

CN1CCc2cc(Cl)c(O)cc2[C@@H](c2ccccc2)C1 [SCH23390]
block of the fenoldopam effect on cAMP production: blocked
